Data: article PMC2672601
These are yes or no findings as the source states them, for the method shown. Binding seen in cells or lysates may run through a third protein. These calls come from enrichment with a bait or labelling near it, and not all partners need be listed. No binding means not detected with the bait. Sequences can lack the tags named with a protein.

Protein sequences, listed by entry. Tags and fused reporters are not part of them. Residues count along the entry.
UniProt Q8BKX1: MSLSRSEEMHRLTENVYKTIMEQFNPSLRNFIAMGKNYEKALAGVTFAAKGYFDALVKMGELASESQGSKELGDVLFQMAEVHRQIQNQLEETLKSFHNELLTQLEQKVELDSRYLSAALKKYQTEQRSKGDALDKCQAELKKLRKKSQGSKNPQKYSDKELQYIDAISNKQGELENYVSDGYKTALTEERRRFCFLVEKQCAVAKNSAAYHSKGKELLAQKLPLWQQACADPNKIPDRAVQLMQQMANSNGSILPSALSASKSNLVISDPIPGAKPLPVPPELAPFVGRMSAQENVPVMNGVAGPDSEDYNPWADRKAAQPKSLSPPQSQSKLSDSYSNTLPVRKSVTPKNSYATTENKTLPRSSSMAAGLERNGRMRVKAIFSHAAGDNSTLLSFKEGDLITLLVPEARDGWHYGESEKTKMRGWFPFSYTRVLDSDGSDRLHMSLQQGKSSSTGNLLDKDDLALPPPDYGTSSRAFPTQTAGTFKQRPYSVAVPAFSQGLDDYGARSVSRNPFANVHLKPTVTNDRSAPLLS
UniProt P16305, residues 20-453: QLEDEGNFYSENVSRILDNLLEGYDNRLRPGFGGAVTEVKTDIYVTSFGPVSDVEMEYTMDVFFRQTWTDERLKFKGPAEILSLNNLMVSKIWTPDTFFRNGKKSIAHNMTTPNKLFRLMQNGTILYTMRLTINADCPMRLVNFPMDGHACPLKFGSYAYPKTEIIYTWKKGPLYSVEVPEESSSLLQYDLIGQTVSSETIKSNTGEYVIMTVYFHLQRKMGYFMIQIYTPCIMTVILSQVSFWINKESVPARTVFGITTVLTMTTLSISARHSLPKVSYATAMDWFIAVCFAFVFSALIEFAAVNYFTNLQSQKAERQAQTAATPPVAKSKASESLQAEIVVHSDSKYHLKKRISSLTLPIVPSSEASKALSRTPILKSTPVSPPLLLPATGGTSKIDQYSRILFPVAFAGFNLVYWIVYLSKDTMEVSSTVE
UniProt P11881: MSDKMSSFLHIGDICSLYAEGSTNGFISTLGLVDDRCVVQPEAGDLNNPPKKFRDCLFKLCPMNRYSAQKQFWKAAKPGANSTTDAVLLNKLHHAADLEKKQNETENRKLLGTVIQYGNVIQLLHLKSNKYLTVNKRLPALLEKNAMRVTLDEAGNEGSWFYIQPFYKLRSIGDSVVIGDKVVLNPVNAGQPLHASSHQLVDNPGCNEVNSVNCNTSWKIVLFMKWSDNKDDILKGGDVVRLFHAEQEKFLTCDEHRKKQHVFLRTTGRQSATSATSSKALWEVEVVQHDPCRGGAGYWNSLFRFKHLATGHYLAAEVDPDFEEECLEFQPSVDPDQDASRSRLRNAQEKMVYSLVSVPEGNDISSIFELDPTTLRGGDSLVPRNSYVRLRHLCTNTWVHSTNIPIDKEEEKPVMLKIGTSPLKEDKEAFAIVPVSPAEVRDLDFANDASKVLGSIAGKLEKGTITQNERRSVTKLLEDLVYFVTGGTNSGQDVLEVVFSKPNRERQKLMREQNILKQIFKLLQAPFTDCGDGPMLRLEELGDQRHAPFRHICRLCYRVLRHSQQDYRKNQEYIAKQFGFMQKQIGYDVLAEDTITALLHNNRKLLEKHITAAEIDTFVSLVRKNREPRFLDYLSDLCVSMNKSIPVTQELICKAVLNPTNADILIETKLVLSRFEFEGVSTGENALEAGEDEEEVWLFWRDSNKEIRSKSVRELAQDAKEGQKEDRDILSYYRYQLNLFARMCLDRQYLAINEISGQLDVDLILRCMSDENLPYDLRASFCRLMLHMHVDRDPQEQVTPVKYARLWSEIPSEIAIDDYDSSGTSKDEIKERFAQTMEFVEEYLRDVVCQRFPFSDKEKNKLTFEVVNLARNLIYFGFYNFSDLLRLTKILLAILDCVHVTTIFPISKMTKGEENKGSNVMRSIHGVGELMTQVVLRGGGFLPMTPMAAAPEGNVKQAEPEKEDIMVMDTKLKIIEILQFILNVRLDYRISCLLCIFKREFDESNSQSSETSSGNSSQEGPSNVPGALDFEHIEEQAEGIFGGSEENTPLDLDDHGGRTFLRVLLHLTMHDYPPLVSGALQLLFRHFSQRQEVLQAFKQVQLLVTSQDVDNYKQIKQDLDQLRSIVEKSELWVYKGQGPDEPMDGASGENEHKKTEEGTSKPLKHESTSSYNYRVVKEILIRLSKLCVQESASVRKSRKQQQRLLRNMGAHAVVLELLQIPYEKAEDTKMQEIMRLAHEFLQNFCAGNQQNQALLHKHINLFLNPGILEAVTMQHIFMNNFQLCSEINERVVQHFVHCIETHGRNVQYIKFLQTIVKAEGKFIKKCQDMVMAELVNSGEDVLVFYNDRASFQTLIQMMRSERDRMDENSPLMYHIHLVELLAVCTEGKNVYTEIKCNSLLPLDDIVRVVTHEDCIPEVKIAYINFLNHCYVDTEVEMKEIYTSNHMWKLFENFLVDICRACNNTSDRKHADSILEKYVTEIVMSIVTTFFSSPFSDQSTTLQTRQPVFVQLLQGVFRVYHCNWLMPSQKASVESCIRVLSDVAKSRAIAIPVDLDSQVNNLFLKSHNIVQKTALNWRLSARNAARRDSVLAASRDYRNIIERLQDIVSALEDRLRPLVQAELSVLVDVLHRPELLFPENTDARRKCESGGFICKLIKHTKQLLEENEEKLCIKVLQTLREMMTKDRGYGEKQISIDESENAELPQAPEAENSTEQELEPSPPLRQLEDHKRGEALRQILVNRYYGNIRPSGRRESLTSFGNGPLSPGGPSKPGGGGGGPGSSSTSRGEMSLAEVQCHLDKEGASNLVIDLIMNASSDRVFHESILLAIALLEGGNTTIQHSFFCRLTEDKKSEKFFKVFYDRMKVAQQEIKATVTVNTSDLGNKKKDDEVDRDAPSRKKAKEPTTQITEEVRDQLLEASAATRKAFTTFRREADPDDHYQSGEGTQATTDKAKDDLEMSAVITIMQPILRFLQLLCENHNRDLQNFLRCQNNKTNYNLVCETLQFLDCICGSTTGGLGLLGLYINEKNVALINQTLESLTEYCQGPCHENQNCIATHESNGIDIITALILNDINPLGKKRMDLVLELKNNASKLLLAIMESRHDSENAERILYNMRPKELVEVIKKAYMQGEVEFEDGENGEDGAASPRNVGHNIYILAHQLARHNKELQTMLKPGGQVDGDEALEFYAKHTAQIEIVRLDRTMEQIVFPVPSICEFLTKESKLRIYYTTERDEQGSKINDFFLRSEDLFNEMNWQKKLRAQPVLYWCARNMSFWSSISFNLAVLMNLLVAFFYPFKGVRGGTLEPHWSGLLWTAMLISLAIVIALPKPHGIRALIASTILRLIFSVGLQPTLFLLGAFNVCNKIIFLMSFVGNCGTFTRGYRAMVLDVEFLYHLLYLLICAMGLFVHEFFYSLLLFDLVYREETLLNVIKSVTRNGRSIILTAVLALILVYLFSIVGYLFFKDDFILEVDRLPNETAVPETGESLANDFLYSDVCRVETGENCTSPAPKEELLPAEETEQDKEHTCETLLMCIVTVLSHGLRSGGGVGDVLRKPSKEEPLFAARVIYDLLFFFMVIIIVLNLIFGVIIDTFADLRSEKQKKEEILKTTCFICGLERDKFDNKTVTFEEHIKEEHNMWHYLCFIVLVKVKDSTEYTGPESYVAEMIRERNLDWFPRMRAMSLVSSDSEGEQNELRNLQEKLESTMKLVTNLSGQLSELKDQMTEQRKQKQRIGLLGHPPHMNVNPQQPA
UniProt P28652: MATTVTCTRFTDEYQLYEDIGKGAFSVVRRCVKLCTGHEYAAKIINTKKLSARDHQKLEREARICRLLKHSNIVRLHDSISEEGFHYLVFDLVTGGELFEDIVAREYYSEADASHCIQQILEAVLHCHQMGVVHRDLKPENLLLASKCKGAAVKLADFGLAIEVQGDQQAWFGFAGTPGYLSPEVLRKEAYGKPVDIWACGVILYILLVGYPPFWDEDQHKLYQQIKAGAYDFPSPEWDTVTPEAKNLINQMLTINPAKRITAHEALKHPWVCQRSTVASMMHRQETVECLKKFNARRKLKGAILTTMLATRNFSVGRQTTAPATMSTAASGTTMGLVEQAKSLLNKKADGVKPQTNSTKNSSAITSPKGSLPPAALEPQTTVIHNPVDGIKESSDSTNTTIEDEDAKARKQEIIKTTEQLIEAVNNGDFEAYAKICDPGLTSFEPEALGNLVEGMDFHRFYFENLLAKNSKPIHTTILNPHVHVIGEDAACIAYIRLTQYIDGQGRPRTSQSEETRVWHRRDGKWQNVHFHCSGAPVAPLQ
UniProt Q80W68, residues 48-789: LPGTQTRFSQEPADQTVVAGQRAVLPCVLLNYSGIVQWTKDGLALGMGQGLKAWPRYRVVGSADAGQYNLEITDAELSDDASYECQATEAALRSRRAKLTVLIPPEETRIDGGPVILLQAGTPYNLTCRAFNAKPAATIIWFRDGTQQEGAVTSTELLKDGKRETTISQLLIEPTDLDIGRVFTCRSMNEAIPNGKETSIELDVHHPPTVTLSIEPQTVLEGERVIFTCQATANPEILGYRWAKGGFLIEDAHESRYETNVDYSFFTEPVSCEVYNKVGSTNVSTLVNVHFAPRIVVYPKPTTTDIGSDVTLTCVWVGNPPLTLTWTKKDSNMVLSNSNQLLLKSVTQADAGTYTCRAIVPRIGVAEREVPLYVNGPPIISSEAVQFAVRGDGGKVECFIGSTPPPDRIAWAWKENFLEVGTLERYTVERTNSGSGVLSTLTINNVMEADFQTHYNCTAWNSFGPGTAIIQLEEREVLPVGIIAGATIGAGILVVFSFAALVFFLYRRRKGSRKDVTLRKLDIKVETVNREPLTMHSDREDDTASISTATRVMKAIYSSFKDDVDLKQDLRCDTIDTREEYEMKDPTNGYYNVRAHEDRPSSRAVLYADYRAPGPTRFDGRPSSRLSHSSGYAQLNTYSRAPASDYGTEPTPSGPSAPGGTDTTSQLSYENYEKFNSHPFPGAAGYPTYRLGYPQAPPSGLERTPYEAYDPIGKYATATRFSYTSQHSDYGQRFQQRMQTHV
UniProt Q80UW5: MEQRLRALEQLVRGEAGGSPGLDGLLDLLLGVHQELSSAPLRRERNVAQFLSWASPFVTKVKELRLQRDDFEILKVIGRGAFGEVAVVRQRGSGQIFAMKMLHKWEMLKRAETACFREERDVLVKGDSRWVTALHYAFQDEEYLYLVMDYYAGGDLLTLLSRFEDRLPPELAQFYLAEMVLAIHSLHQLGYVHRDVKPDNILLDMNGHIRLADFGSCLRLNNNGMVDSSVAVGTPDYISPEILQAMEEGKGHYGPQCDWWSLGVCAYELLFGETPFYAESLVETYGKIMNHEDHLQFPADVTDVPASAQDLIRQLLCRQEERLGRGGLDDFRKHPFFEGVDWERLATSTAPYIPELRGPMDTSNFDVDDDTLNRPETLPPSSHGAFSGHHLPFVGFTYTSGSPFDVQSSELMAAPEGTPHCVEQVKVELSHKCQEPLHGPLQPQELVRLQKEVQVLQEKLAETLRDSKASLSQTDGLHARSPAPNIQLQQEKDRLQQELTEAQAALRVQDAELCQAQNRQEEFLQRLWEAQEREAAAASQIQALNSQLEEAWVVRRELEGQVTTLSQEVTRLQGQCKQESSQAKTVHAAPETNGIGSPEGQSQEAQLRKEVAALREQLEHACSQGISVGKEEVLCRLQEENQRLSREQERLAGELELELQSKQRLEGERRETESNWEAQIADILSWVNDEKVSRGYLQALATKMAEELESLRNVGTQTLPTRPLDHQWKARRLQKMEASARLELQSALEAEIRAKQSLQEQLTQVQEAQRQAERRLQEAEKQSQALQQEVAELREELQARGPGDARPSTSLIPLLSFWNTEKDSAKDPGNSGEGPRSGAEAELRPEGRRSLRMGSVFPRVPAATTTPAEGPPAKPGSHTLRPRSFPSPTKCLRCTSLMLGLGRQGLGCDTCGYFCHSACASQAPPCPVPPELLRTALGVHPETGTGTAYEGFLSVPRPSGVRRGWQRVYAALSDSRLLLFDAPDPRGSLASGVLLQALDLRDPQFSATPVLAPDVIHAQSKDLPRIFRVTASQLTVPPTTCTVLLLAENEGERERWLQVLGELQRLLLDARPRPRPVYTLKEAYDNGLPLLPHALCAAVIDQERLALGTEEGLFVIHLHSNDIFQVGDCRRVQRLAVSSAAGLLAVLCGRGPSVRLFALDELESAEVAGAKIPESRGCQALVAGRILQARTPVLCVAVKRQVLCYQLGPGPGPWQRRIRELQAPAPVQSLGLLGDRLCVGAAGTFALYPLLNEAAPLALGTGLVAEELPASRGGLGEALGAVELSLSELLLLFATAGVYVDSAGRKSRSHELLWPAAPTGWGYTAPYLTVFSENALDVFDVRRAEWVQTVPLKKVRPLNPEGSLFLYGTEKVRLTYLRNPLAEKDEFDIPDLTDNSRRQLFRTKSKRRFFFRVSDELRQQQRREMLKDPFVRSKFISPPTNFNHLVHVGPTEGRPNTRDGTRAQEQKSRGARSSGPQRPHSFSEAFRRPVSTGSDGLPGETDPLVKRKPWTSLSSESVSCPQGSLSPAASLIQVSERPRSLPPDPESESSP

target: T1, VGluRδ2 (fusion between Venus and the glutamate receptor delta2, GluRδ2) (UniProt Q61625); experiment: affinity purification with mass spectrometry; same anti-GFP affinity purification of pooled synaptic fractions (samples pooled from 30 and from 50 Pcp2/VGluRδ2 cerebella); SDS-PAGE, in-gel trypsin digestion, MALDI QqTOF MS and MALDI-IT MS/MS; control isolates from Pcp2/eGFP mice
T1 sequence: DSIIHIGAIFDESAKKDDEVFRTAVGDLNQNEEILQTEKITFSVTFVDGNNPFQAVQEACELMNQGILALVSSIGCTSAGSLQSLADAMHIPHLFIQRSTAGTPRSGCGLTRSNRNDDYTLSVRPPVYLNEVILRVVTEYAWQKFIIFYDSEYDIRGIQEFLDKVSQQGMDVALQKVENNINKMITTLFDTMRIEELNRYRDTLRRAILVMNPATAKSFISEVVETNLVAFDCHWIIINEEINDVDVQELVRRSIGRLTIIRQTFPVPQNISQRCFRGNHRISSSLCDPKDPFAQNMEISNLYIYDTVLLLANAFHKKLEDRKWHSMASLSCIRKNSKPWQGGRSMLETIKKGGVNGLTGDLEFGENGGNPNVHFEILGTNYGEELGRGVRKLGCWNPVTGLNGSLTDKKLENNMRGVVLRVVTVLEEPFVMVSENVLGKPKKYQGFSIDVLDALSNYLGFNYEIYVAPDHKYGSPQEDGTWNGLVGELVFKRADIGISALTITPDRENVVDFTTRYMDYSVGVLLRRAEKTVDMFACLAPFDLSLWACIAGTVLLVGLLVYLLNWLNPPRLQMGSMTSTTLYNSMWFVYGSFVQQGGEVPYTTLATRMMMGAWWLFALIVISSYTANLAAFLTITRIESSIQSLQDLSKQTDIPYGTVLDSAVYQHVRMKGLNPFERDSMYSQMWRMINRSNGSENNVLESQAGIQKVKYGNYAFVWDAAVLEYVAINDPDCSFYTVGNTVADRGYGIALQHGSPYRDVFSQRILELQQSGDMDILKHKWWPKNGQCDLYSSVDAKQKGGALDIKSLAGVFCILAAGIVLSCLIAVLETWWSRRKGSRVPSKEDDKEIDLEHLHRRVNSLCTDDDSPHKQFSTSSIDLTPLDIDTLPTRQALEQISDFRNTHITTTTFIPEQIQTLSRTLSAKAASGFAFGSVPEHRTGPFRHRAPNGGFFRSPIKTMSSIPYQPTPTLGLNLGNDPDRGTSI

| Substance | binding |
| --- | --- |
| ABCA12 (from UniProt E9Q876 1-2595) | binds |
| BAIAP2 (from UniProt Q8BKX1 1-535) | binds |
| GABA(A) receptor α6 (from UniProt P16305 20-453) | no binding |
| Itpr1 (from UniProt P11881 1-2749) (receptor) | binds |
| Shank1 (from UniProt D3YZU1 1-2167) | binds |
| phospholipase B (mouse (endogenous in cerebellum)) (enzyme) | binds |
| receptor tyrosine phosphatase RPTPmu (from UniProt P28828 21-1452) | binds |
| synaptojanin 1 (from UniProt Q8CHC4 1-1574) (enzyme) | binds |

Next, values leading:

| binding | Substance |
| --- | --- |
| binds | Camk2b (from UniProt P28652 1-542) (enzyme) |
| binds | Gm941 (mouse (endogenous in cerebellum)) |
| binds | Neph1 (from UniProt Q80W68 48-789) |
| binds | kinase MRCK gamma (MRCKγ) (from UniProt Q80UW5 1-1551) (enzyme) |
